Experimental data published in PMC3972135.
These are yes or no findings as the source states them, for the method shown. For some assays here: In cells and extracts the contact can be indirect. Some entries that bind do so weakly or less than the wild type. Where a sequence is shown, tags or fusion partners need not be part of it.

Amino acid sequences for entries named in this document (tags omitted).
UniProt P80297: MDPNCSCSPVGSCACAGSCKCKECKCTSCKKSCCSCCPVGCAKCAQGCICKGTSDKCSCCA

Assays:
[1] = target: T1, FHL3 mutant with sequential deletion of LIM4 (FHL3d4), GAL4 DNA-binding domain fusion (human) (UniProt Q13643); assay: two-hybrid; co-transformation of pAS2-1/FHL3d4 and pACT2/MT-1X into yeast Y190; SD/-Leu-Trp-His, coloration (β-galactosidase) analysis
T1 sequence: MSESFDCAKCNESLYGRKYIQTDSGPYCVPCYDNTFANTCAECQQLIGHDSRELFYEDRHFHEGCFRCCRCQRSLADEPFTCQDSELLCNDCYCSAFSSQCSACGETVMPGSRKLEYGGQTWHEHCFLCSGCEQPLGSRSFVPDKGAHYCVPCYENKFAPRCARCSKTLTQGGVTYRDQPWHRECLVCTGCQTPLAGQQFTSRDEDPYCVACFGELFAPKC

HA-FHL3 (human) = target: T2, HA-FHL3 (human) (UniProt Q13643); assay: co-IP; 293T cells co-transfected with pCMV-HA/FHL3 and pCMV-Myc/MT-1X, Triton lysis buffer (20 mM Tris-HCl pH 7.6, 120 mM NaCl, 1% Triton X-100), 4°C; methods: IP with anti-Myc or control anti-IgG; blot with anti-myc and anti-HA
T2 sequence: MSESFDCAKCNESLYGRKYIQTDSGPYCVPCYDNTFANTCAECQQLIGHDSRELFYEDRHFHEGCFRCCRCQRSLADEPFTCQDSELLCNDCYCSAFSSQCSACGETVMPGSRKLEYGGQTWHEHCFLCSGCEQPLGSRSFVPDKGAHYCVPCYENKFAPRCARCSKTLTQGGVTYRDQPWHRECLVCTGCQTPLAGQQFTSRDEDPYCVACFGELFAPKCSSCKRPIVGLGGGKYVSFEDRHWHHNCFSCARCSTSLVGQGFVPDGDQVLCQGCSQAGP

full length MT-1X, GAL4 activation domain fusion (from UniProt P80297 1-61)
binding [1]: binds

Myc-MT-1X (from UniProt P80297 1-61)
binding (HA-FHL3 (human)): binds
